Reference: the supplement of paper PMC4604168 (melanoma cell lines)
The list shows a part of the results. Repeats are few or missing, and single values can be far off.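 The apoptosis fraction was the count of cleaved-PARP antibody-stained nuclei relative to all DNA-stained nuclei, imaged in 1,536-well plates. Screening doses were set so most cells survived, and baseline and induced cleaved-PARP levels vary greatly across cell lines.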

Each molecule was assayed on LB2518-MEL (assay: cleaved PARP positive nuclei fraction relative to DMSO control; melanoma cells; higher = more apoptosis). Conditions: library dose: low library concentration; 72 h.
For Cc1cn(-c2cc(NC(=O)c3ccc(C)c(Nc4nccc(-c5cccnc5)n4)c3)cc(C(F)(F)F)c2)cn1 [nilotinib] + CNC(=O)c1cc(Oc2ccc(NC(=O)Nc3ccc(Cl)c(C(F)(F)F)c3)cc2)ccn1 [sorafenib] (first compound 0.2 µM, partner dose 0.4 µM), the “cleaved PARP positive nuclei fraction” value was 105%.
In the case of Cc1ccc(Nc2nccc(N(C)c3ccc4c(C)n(C)nc4c3)n2)cc1S(N)(=O)=O [Pazopanib] + CS(=O)(=O)CCNCc1ccc(-c2ccc3ncnc(Nc4ccc(OCc5cccc(F)c5)c(Cl)c4)c3c2)o1 [lapatinib] (first compound 0.4 µM, partner dose 0.8 µM), the “cleaved PARP positive nuclei fraction” value was 92.9%.
In the case of N#CC[C@H](C1CCCC1)n1cc(-c2ncnc3[nH]ccc23)cn1 [ruxolitinib] + C[C@]1(c2nc3c(C(N)=O)cccc3[nH]2)CCCN1 [Veliparib] (first compound 1 µM, partner dose 1.4 µM), the “cleaved PARP positive nuclei fraction” value was 60%.
With CC[C@]1(O)C[C@H]2CN(CCc3c([nH]c4ccccc34)[C@@](C(=O)OC)(c3cc4c(cc3OC)N(C=O)[C@H]3[C@@](O)(C(=O)OC)[C@H](OC(C)=O)[C@]5(CC)C=CCN6CC[C@]43[C@@H]65)C2)C1 [vincristine] + Cn1cnc2c(F)c(Nc3ccc(Br)cc3Cl)c(C(=O)NOCCO)cc21 [selumetinib] (first compound 0.0001 µM, partner dose 0.015 µM) the “cleaved PARP positive nuclei fraction” value was 259%.
With O=c1[nH]nc(Sc2ncc([N+](=O)[O-])s2)n1-c1ccc2c(c1)OCCO2 + CC(=O)O[C@@]12CO[C@@H]1C[C@H](O)[C@@]1(C)C(=O)[C@H](O)C3=C(C)[C@@H](OC(=O)[C@H](O)[C@@H](NC(=O)OC(C)(C)C)c4ccccc4)C[C@@](O)([C@@H](OC(=O)c4ccccc4)[C@H]21)C3(C)C [Docetaxel] (first compound 0.2 µM, partner dose 0.0001 µM) the “cleaved PARP positive nuclei fraction” value was 142%.
O=c1[nH]nc(Sc2ncc([N+](=O)[O-])s2)n1-c1ccc2c(c1)OCCO2 + CN(c1ncccc1CNc1nc(Nc2ccc3c(c2)CC(=O)N3)ncc1C(F)(F)F)S(C)(=O)=O [PF562271] (first compound 0.2 µM, partner dose 0.08 µM) was tested, and the “cleaved PARP positive nuclei fraction” value was 110%.
In the case of COc1cc([C@@H]2c3cc4c(cc3[C@@H](O[C@@H]3O[C@@H]5CO[C@@H](C)O[C@H]5[C@H](O)[C@H]3O)[C@H]3COC(=O)[C@H]23)OCO4)cc(OC)c1O [etoposide] + CN(c1ncccc1CNc1nc(Nc2ccc3c(c2)CC(=O)N3)ncc1C(F)(F)F)S(C)(=O)=O [PF562271] (first compound 0.02 µM, partner dose 0.08 µM), the “cleaved PARP positive nuclei fraction” value was 57.4%.
In the case of CC[C@]1(O)C[C@H]2CN(CCc3c([nH]c4ccccc34)[C@@](C(=O)OC)(c3cc4c(cc3OC)N(C=O)[C@H]3[C@@](O)(C(=O)OC)[C@H](OC(C)=O)[C@]5(CC)C=CCN6CC[C@]43[C@@H]65)C2)C1 [vincristine] + Cn1c(Nc2ccc(C(F)(F)F)cc2)nc2cc(Oc3ccnc(-c4ncc(C(F)(F)F)[nH]4)c3)ccc21 [CHIR265] (first compound 0.0001 µM, partner dose 0.08 µM), the “cleaved PARP positive nuclei fraction” value was 208%.
In the case of Cc1cn(-c2cc(NC(=O)c3ccc(C)c(Nc4nccc(-c5cccnc5)n4)c3)cc(C(F)(F)F)c2)cn1 [nilotinib] + CO[C@H]1C[C@@H]2CC[C@@H](C)[C@@](O)(O2)C(=O)C(=O)N2CCCC[C@H]2C(=O)O[C@H]([C@H](C)C[C@@H]2CC[C@@H](OCCO)[C@H](OC)C2)CC(=O)[C@H](C)/C=C(\C)[C@@H](O)[C@@H](OC)C(=O)[C@H](C)C[C@H](C)/C=C/C=C/C=C/1C [everolimus] (first compound 0.2 µM, partner dose 0.02 µM), the “cleaved PARP positive nuclei fraction” value was 89.2%.
With O=C(/C=C/c1cccnc1)NCCCCC1CCN(C(=O)c2ccccc2)CC1 + CO[C@H]1C[C@@H]2CC[C@@H](C)[C@@](O)(O2)C(=O)C(=O)N2CCCC[C@H]2C(=O)O[C@H]([C@H](C)C[C@@H]2CC[C@@H](OCCO)[C@H](OC)C2)CC(=O)[C@H](C)/C=C(\C)[C@@H](O)[C@@H](OC)C(=O)[C@H](C)C[C@H](C)/C=C/C=C/C=C/1C [everolimus] (first compound 0.01 µM, partner dose 0.02 µM) the “cleaved PARP positive nuclei fraction” value was 130%.
With COc1cc([C@@H]2c3cc4c(cc3[C@@H](O[C@@H]3O[C@@H]5CO[C@@H](C)O[C@H]5[C@H](O)[C@H]3O)[C@H]3COC(=O)[C@H]23)OCO4)cc(OC)c1O [etoposide] + CO[C@H]1C[C@@H]2CC[C@@H](C)[C@@](O)(O2)C(=O)C(=O)N2CCCC[C@H]2C(=O)O[C@H]([C@H](C)C[C@@H]2CC[C@@H](OCCO)[C@H](OC)C2)CC(=O)[C@H](C)/C=C(\C)[C@@H](O)[C@@H](OC)C(=O)[C@H](C)C[C@H](C)/C=C/C=C/C=C/1C [everolimus] (first compound 0.02 µM, partner dose 0.02 µM) the “cleaved PARP positive nuclei fraction” value was 144%.
Cc1cn(-c2cc(NC(=O)c3ccc(C)c(Nc4nccc(-c5cccnc5)n4)c3)cc(C(F)(F)F)c2)cn1 [nilotinib] + Nc1cccc2c1CN(C1CCC(=O)NC1=O)C2=O [lenalidomide] (first compound 0.2 µM, partner dose 1 µM) was tested, and the “cleaved PARP positive nuclei fraction” value was 101%.
Cc1ccc(Nc2nccc(N(C)c3ccc4c(C)n(C)nc4c3)n2)cc1S(N)(=O)=O [Pazopanib] + CNC(=O)c1cc(Oc2ccc(NC(=O)Nc3ccc(Cl)c(C(F)(F)F)c3)cc2)ccn1 [sorafenib] (first compound 0.4 µM, partner dose 0.4 µM) was tested, and the “cleaved PARP positive nuclei fraction” value was 120%.
